{
  "source": "the supplement of paper PMC8728848",
  "assay_in_all_cases": "glycan array binding signal (z-score within array); higher = stronger binding",
  "conditions_in_all_cases": "glycan notation: IUPAC condensed, linker removed",
  "key": {"Fuc(a1-3)GlcNAc": {"molecular_target": "Fuc(a1-3)GlcNAc", "how_it_was_run": "(§1)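 The Consortium for Functional Glycomics database supplied 3228 glycan arrays, of which those lacking an available protein sequence were dropped. The binding signal, a within-array Z-score, was averaged across arrays of the same protein sequence and across linkers. Negative scores can be read as non-binding.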"}, "[1]": {"molecular_target": "Fuc(a1-3)[Gal(b1-4)]Glc6S", "how_it_was_run": "as §1"}, "[2]": {"molecular_target": "Fuc(a1-3)[Gal(b1-4)]GlcNAc", "how_it_was_run": "as §1"}, "[3]": {"molecular_target": "Fuc(a1-3)[Gal(b1-4)]GlcNAc(b1-2)Man", "how_it_was_run": "as §1"}, "[4]": {"molecular_target": "Fuc(a1-3)[Gal(b1-4)]GlcNAc(b1-2)Man(a1-3)[Fuc(a1-3)[Gal(b1-4)]GlcNAc(b1-2)Man(a1-6)]Man(b1-4)GlcNAc(b1-4)GlcNAc", "how_it_was_run": "as §1"}, "[5]": {"molecular_target": "Fuc(a1-3)[Gal(b1-4)]GlcNAc(b1-2)Man(a1-3)[Fuc(a1-3)[Gal(b1-4)]GlcNAc(b1-2)Man(a1-6)]Man(b1-4)GlcNAc(b1-4)[Fuc(a1-6)]GlcNAc", "how_it_was_run": "as §1"}, "[6]": {"molecular_target": "Fuc(a1-3)[Gal(b1-4)]GlcNAc(b1-3)Gal(b1-3)[Fuc(a1-4)]GlcNAc", "how_it_was_run": "as §1"}, "[7]": {"molecular_target": "Fuc(a1-3)[Gal(b1-4)]GlcNAc(b1-3)Gal(b1-4)[Fuc(a1-3)]GlcNAc", "how_it_was_run": "as §1"}, "[8]": {"molecular_target": "Fuc(a1-3)[Gal(b1-4)]GlcNAc(b1-3)Gal(b1-4)[Fuc(a1-3)]GlcNAc(b1-3)Gal(b1-4)[Fuc(a1-3)]GlcNAc", "how_it_was_run": "as §1"}, "[9]": {"molecular_target": "Fuc(a1-3)[Gal(b1-4)]GlcNAc(b1-3)GalNAc", "how_it_was_run": "as §1"}, "[10]": {"molecular_target": "Fuc(a1-3)[Gal(b1-4)]GlcNAc(b1-6)GalNAc", "how_it_was_run": "as §1"}, "[11]": {"molecular_target": "Fuc(a1-3)[Gal(b1-4)]GlcNAc(b1-6)[Gal(b1-3)GlcNAc(b1-3)]Gal(b1-4)Glc", "how_it_was_run": "as §1"}, "[12]": {"molecular_target": "Fuc(a1-3)[Gal(b1-4)]GlcNAc6S", "how_it_was_run": "as §1"}, "[13]": {"molecular_target": "Fuc(a1-3)[Gal3S(b1-4)]Glc", "how_it_was_run": "as §1"}, "[14]": {"molecular_target": "Fuc(a1-3)[Gal3S(b1-4)]GlcNAc", "how_it_was_run": "as §1"}, "[15]": {"molecular_target": "Fuc(a1-3)[Gal3S(b1-4)]GlcNAc6S", "how_it_was_run": "as §1"}, "[16]": {"molecular_target": "Fuc(a1-3)[GalNAc(b1-4)]GlcNAc", "how_it_was_run": "as §1"}, "[17]": {"molecular_target": "Fuc(a1-3)[GalNAc(b1-4)]GlcNAc6S", "how_it_was_run": "as §1"}, "Fuc(a1-4)GlcNAc": {"molecular_target": "Fuc(a1-4)GlcNAc", "how_it_was_run": "as §1"}, "Fuc(b1-3)GlcNAc": {"molecular_target": "Fuc(b1-3)GlcNAc", "how_it_was_run": "as §1"}, "Gal(a1-2)Gal": {"molecular_target": "Gal(a1-2)Gal", "how_it_was_run": "as §1"}, "Gal(a1-3)Gal": {"molecular_target": "Gal(a1-3)Gal", "how_it_was_run": "as §1"}, "Gal(a1-3)Gal(b1-3)GlcNAc": {"molecular_target": "Gal(a1-3)Gal(b1-3)GlcNAc", "how_it_was_run": "as §1"}, "[18]": {"molecular_target": "Gal(a1-3)Gal(b1-3)GlcNAc(b1-2)Man", "how_it_was_run": "as §1"}, "[19]": {"molecular_target": "Gal(a1-3)Gal(b1-3)GlcNAc(b1-2)Man(a1-3)[Gal(a1-3)Gal(b1-3)GlcNAc(b1-2)Man(a1-6)]Man(b1-4)GlcNAc(b1-4)GlcNAc", "how_it_was_run": "as §1"}, "[20]": {"molecular_target": "Gal(a1-3)Gal(b1-3)GlcNAc(b1-3)GalNAc", "how_it_was_run": "as §1"}, "[21]": {"molecular_target": "Gal(a1-3)Gal(b1-3)GlcNAc(b1-6)GalNAc", "how_it_was_run": "as §1"}, "[22]": {"molecular_target": "Gal(a1-3)Gal(b1-3)[Fuc(a1-4)]GlcNAc(b1-2)Man(a1-3)[Gal(a1-3)Gal(b1-3)[Fuc(a1-4)]GlcNAc(b1-2)Man(a1-6)]Man(b1-4)GlcNAc(b1-4)GlcNAc", "how_it_was_run": "as §1"}, "Gal(a1-3)Gal(b1-4)Glc": {"molecular_target": "Gal(a1-3)Gal(b1-4)Glc", "how_it_was_run": "as §1"}, "Gal(a1-3)Gal(b1-4)GlcNAc": {"molecular_target": "Gal(a1-3)Gal(b1-4)GlcNAc", "how_it_was_run": "as §1"}, "[23]": {"molecular_target": "Gal(a1-3)Gal(b1-4)GlcNAc(b1-2)Man", "how_it_was_run": "as §1"}, "[24]": {"molecular_target": "Gal(a1-3)Gal(b1-4)GlcNAc(b1-2)Man(a1-3)[Gal(a1-3)Gal(b1-4)GlcNAc(b1-2)Man(a1-6)]Man(b1-4)GlcNAc(b1-4)GlcNAc", "how_it_was_run": "as §1"}, "[25]": {"molecular_target": "Gal(a1-3)Gal(b1-4)GlcNAc(b1-3)GalNAc", "how_it_was_run": "as §1"}, "[26]": {"molecular_target": "Gal(a1-3)Gal(b1-4)GlcNAc(b1-6)GalNAc", "how_it_was_run": "as §1"}, "[27]": {"molecular_target": "Gal(a1-3)Gal(b1-4)[Fuc(a1-3)]GlcNAc", "how_it_was_run": "as §1"}, "[28]": {"molecular_target": "Gal(a1-3)Gal(b1-4)[Fuc(a1-3)]GlcNAc(b1-2)Man(a1-3)[Gal(a1-3)Gal(b1-4)[Fuc(a1-3)]GlcNAc(b1-2)Man(a1-6)]Man(b1-4)GlcNAc(b1-4)GlcNAc", "how_it_was_run": "as §1"}, "Gal(a1-3)GalNAc": {"molecular_target": "Gal(a1-3)GalNAc", "how_it_was_run": "as §1"}, "[29]": {"molecular_target": "Gal(a1-3)[Gal(a1-4)]Gal(b1-4)GlcNAc", "how_it_was_run": "as §1"}, "[30]": {"molecular_target": "Gal(a1-4)Gal(b1-3)GlcNAc(b1-2)Man(a1-3)[Gal(a1-4)Gal(b1-3)GlcNAc(b1-2)Man(a1-6)]Man(b1-4)GlcNAc(b1-4)GlcNAc", "how_it_was_run": "as §1"}, "Gal(a1-4)Gal(b1-4)Glc": {"molecular_target": "Gal(a1-4)Gal(b1-4)Glc", "how_it_was_run": "as §1"}, "Gal(a1-4)Gal(b1-4)GlcNAc": {"molecular_target": "Gal(a1-4)Gal(b1-4)GlcNAc", "how_it_was_run": "as §1"}, "[31]": {"molecular_target": "Gal(a1-4)Gal(b1-4)GlcNAc(b1-2)Man(a1-3)[Gal(a1-4)Gal(b1-4)GlcNAc(b1-2)Man(a1-6)]Man(b1-4)GlcNAc(b1-4)GlcNAc", "how_it_was_run": "as §1"}, "[32]": {"molecular_target": "Gal(a1-4)Gal(b1-4)GlcNAc(b1-3)Gal(b1-4)Glc", "how_it_was_run": "as §1"}, "Gal(a1-4)GlcNAc": {"molecular_target": "Gal(a1-4)GlcNAc", "how_it_was_run": "as §1"}, "Gal(a1-6)Glc": {"molecular_target": "Gal(a1-6)Glc", "how_it_was_run": "as §1"}},
  "note": "The other results are listed elsewhere or left out.",
  "data": [
    {"binder": "Aap lectin (Staphylococcus epidermidis) (protein) VNLNYSSPFMSLLSMPADSSSNNTKNTIDIPPTTVKGRDNYDFYGRVDIESNPTDLNATNLTRYNYGQPPGTTTAGAVQFKNQVSFDKDFDFNIRVANNRQSNTTGADGWGFMFSKKDGDDFLKNGGILREKGTPSAAGFRIDTGYYNNDPLDKIQKQAGQGYRGYGTFVKNDSQGNTSKVGSGTPSTDFLNYADNTTNDLDGKFHGQKLNNVNLKYNASNQTFTATYAGKTWTATLSELGLSPTDSYNFLVTSS", "values": [
      {"measurement": "glycan array binding signal (z-score)", "setting": "Fuc(a1-3)GlcNAc", "value": -0.693},
      {"measurement": "glycan array binding signal (z-score)", "setting": "[1]", "value": -0.16},
      {"measurement": "glycan array binding signal (z-score)", "setting": "[2]", "value": 0.297},
      {"measurement": "glycan array binding signal (z-score)", "setting": "[3]", "value": -0.955},
      {"measurement": "glycan array binding signal (z-score)", "setting": "[4]", "value": 2.08},
      {"measurement": "glycan array binding signal (z-score)", "setting": "[5]", "value": 1.21},
      {"measurement": "glycan array binding signal (z-score)", "setting": "[6]", "value": -0.83},
      {"measurement": "glycan array binding signal (z-score)", "setting": "[7]", "value": 1.81},
      {"measurement": "glycan array binding signal (z-score)", "setting": "[8]", "value": 0.476},
      {"measurement": "glycan array binding signal (z-score)", "setting": "[9]", "value": 1.45},
      {"measurement": "glycan array binding signal (z-score)", "setting": "[10]", "value": -0.643},
      {"measurement": "glycan array binding signal (z-score)", "setting": "[11]", "value": 2.12},
      {"measurement": "glycan array binding signal (z-score)", "setting": "[12]", "value": -0.113},
      {"measurement": "glycan array binding signal (z-score)", "setting": "[13]", "value": 1.63},
      {"measurement": "glycan array binding signal (z-score)", "setting": "[14]", "value": 2.12},
      {"measurement": "glycan array binding signal (z-score)", "setting": "[15]", "value": -0.816},
      {"measurement": "glycan array binding signal (z-score)", "setting": "[16]", "value": -0.063},
      {"measurement": "glycan array binding signal (z-score)", "setting": "[17]", "value": -0.715},
      {"measurement": "glycan array binding signal (z-score)", "setting": "Fuc(a1-4)GlcNAc", "value": -0.27},
      {"measurement": "glycan array binding signal (z-score)", "setting": "Fuc(b1-3)GlcNAc", "value": 0.487},
      {"measurement": "glycan array binding signal (z-score)", "setting": "Gal(a1-2)Gal", "value": -0.818},
      {"measurement": "glycan array binding signal (z-score)", "setting": "Gal(a1-3)Gal", "value": 0.083},
      {"measurement": "glycan array binding signal (z-score)", "setting": "Gal(a1-3)Gal(b1-3)GlcNAc", "value": 1.93},
      {"measurement": "glycan array binding signal (z-score)", "setting": "[18]", "value": 2.18},
      {"measurement": "glycan array binding signal (z-score)", "setting": "[19]", "value": 2.88},
      {"measurement": "glycan array binding signal (z-score)", "setting": "[20]", "value": 1.24},
      {"measurement": "glycan array binding signal (z-score)", "setting": "[21]", "value": 1.11},
      {"measurement": "glycan array binding signal (z-score)", "setting": "[22]", "value": 2.41},
      {"measurement": "glycan array binding signal (z-score)", "setting": "Gal(a1-3)Gal(b1-4)Glc", "value": -0.731},
      {"measurement": "glycan array binding signal (z-score)", "setting": "Gal(a1-3)Gal(b1-4)GlcNAc", "value": -0.335},
      {"measurement": "glycan array binding signal (z-score)", "setting": "[23]", "value": -0.611},
      {"measurement": "glycan array binding signal (z-score)", "setting": "[24]", "value": 1.09},
      {"measurement": "glycan array binding signal (z-score)", "setting": "[25]", "value": -0.631},
      {"measurement": "glycan array binding signal (z-score)", "setting": "[26]", "value": -0.434},
      {"measurement": "glycan array binding signal (z-score)", "setting": "[27]", "value": -0.882},
      {"measurement": "glycan array binding signal (z-score)", "setting": "[28]", "value": -0.777},
      {"measurement": "glycan array binding signal (z-score)", "setting": "Gal(a1-3)GalNAc", "value": -0.231},
      {"measurement": "glycan array binding signal (z-score)", "setting": "[29]", "value": -0.627},
      {"measurement": "glycan array binding signal (z-score)", "setting": "[30]", "value": 1.06},
      {"measurement": "glycan array binding signal (z-score)", "setting": "Gal(a1-4)Gal(b1-4)Glc", "value": -0.537},
      {"measurement": "glycan array binding signal (z-score)", "setting": "Gal(a1-4)Gal(b1-4)GlcNAc", "value": -0.252},
      {"measurement": "glycan array binding signal (z-score)", "setting": "[31]", "value": -0.793},
      {"measurement": "glycan array binding signal (z-score)", "setting": "[32]", "value": 1.77},
      {"measurement": "glycan array binding signal (z-score)", "setting": "Gal(a1-4)GlcNAc", "value": -0.773},
      {"measurement": "glycan array binding signal (z-score)", "setting": "Gal(a1-6)Glc", "value": -0.736}
    ]}
  ]
}
